Source: PubChem BioAssay AID504444 (National Center for Advancing Translational Sciences (NCATS), 2011)
The campaign covered roughly 360,000 compounds. About 7,500 (2.1%) were called active. The shares of active, inactive and inconclusive entries below differ from those in the screen. Calls follow the shape of the dose curve; as a rule, active = well fitted inhibition curve with a large enough effect; inconclusive = small, poorly fitted or top-dose-only effect, or effect the other way; inactive = flat fitted curve, though single readings scatter. Potencies of inconclusive entries are doubtful fits and often do not repeat.

test: Nrf2 qHTS screen for inhibitors; conditions: A549 ARE-Fluc reporter, luciferase luminescence, 18-24 h; series mostly up to 46 µM; also: nearly all actives have a fitted effect of over 60% in size
Outline: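 Nrf2 function is reported as luminescence of an ARE-controlled luciferase in A549 cells. Compounds were tested at several concentrations, and a CellTiter-Fluor read on the same wells flagged cytotoxicity.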
Potency is read from the fitted curve at half-maximal effect.

| SMILES | Potency |
| --- | --- |
| CC(Cc1ccccc1)/[N+]([O-])=C\c1ccc(C(F)(F)F)cc1 (stereo not drawn) | inconclusive: 18.4 µM [activator, partial curve] |
| O=[N+]([O-])c1cccc(NP(=O)(Oc2ccccc2)Oc2ccccc2)c1 | inconclusive: 29.1 µM [falling, single point] |
| COc1ccc(/C=C/C(=O)c2c(O)n(CCC3=CCCCC3)c(=O)[nH]c2=O)cc1 | inconclusive: 32.6 µM [falling, partial curve, poor fit] |
| CCCCNS(=O)(=O)c1ccc(OCC(=O)N2CCN(Cc3ccc4c(c3)OCO4)CC2)cc1 | active: 4.61 µM |
| Cc1ccc(C)c(N2CCN(C(=O)C3CCCN(S(=O)(=O)c4cccc5nsnc45)C3)CC2)c1 (stereo not drawn) | active: 16.4 µM |
| Cn1c(=O)oc2cc(S(=O)(=O)NC3CCCCCCC3)ccc21 | inconclusive: 20.6 µM [falling, single point] |
| COc1ccccc1C1=NCc2nnc(CSC)n2-c2ccc(Cl)cc21 | inconclusive: 14.6 µM [activator, partial curve, poor fit] |
| CCCSc1ccc2nc(NC(=O)OC)[nH]c2c1 | inconclusive: 2.91 µM [activator, full curve, poor fit] |
| O=C(N/N=C\c1ccc(COc2ccc([N+](=O)[O-])cc2)o1)c1cccc(Cl)c1 | inconclusive: 20.6 µM [falling, single point] |
| Cc1cc(NC(=O)c2cc(-c3cccc(Cl)c3)on2)nn1Cc1ccc(Cl)cc1 | active: 2.59 µM |
| CSc1ccc(CN2CCN(C(=O)Cc3ccccc3)CC2)cc1 | inconclusive: 10.3 µM [falling, partial curve, poor fit] |
| Cc1ccc(NC(=O)N(Cc2ccc3c(c2)OCO3)C2CCN(Cc3ccccc3)CC2)cc1F | inconclusive: 29.1 µM [activator, single point] |
| CCOc1c(Cl)cc(CNc2ccc(S(N)(=O)=O)cc2)cc1OC | inconclusive: 14.6 µM [falling, partial curve, poor fit] |
| COC(=O)C1=C(C)NC(=S)NC1c1ccc(N(CCCl)CCCl)cc1Cl (stereo not drawn) | inconclusive: 25.9 µM [falling, single point] |
| Clc1cccc(/C=N\Nc2nccs2)c1 | inconclusive: 25.9 µM [activator, partial curve] |
| CCN(C(=O)COC(=O)c1cn(C)c2ccccc12)c1ccc(F)cc1 | inactive |
| Cc1ccc(N=Nc2c(O)[nH]c(=O)[nH]c2=O)cc1S(=O)(=O)Nc1ccc(Br)cc1 | inconclusive: 2.31 µM [falling, partial curve, poor fit] |
| O=c1[nH]c(=O)n(C2CCCCC2)c(O)c1C1=Nc2ccccc2SC(c2ccccc2)C1 (stereo not drawn) | inconclusive: 29.1 µM [falling, single point] |
| N#CC(C#N)=Cc1ccc(N2CCOCC2)cc1 | inactive |
| c1ccc2c(CN3CCCCCC3)c[nH]c2c1 | inactive |
| C=CCN1C(=O)NC(=O)/C(=C/c2cc3c4c(c2)CCCN4CCC3)C1=O | inactive |

Single entries from the entries so far:
For Potency, `C=CCN1C(=O)NC(=O)/C(=C/c2cc3c4c(c2)CCCN4CCC3)C1=O` is listed with inactive
For Potency, `CC(Cc1ccccc1)/[N+]([O-])=C\c1ccc(C(F)(F)F)cc1` (stereo not drawn) is listed with inconclusive: 18.4 µM [activator, partial curve]
For Potency, `c1ccc2c(CN3CCCCCC3)c[nH]c2c1` is listed with inactive
For Potency, `CCN(C(=O)COC(=O)c1cn(C)c2ccccc12)c1ccc(F)cc1` is listed with inactive
For Potency, `CSc1ccc(CN2CCN(C(=O)Cc3ccccc3)CC2)cc1` is listed with inconclusive: 10.3 µM [falling, partial curve, poor fit]

Further entries.

| SMILES | Potency |
| --- | --- |
| CC(C)(C)OC(=O)NCc1ccc(CNC(=O)c2nc[nH]c2C(=O)NCc2ccc(CNC(=O)OC(C)(C)C)cc2)cc1 | active: 6.51 µM |
| CC(=O)N1CCc2cc(S(=O)(=O)N3CCN(c4ccc(C)cc4)C(C)C3)ccc21 (stereo not drawn) | active: 16.4 µM |
| O=C(Nc1c(F)cc(F)cc1F)c1cccn(Cc2ccccc2)c1=O | inconclusive: 18.4 µM [falling, partial curve] |
| Cc1cc(C)cc(Nc2nc3ccc(C)cc3n3cnnc23)c1 | inconclusive: 20.6 µM [falling, single point] |
| CCCCn1c(O)c(C(CC)=NC(C)c2ccccc2)c(=O)[nH]c1=O (stereo not drawn) | inconclusive: 20.6 µM [falling, single point] |
| C[N+]1(C)C2CC[C@H]1CC(OC(=O)C(CO)c1ccccc1)C2 (stereo partly drawn) | inactive |
| CCCNC(=O)c1c(N)n(CC2CCCO2)c2nc3ccccc3nc12 (stereo not drawn) | inconclusive: 8.2 µM [falling, partial curve, poor fit] |
| CCCCCn1c(Sc2ccccc2)nc2c1c(=O)[nH]c(=O)n2C | inconclusive: 25.9 µM [falling, single point] |
| CCCn1cc(S(=O)(=O)c2ccc(OC)cc2)c(=O)c2cc(F)c(N3CCCCCC3)cc21 | inconclusive: 23.1 µM [falling, single point] |
| c1cc2c(cc1[C@H]1OC[C@H]3[C@@H]1CO[C@H]3c1ccc3c(c1)OCO3)OCO2 | inconclusive: 23.1 µM [falling, partial curve, poor fit] |
| COc1cc2c(cc1OC)C(c1c(O)n(CCc3ccccc3)c(=S)[nH]c1=O)NCC2 (stereo not drawn) | inconclusive: 5.8 µM [activator, partial curve] |
| C#CCOc1cc(C2C3=C(COC3=O)Nc3cc4c(cc32)OCO4)ccc1OC (stereo not drawn) | inconclusive: 10.3 µM [activator, partial curve, poor fit] |
| COC(=O)C1=C(c2ccc(Cl)c(C(F)(F)F)c2)C[C@@H]2CC[C@H]1N2C(=O)NCCOc1ccc(OC)cc1 | inconclusive: 29.1 µM [falling, single point] |
| CC1(C)CN=C(NCc2ccccc2Cl)S1 | inconclusive: 3.66 µM [activator, full curve, poor fit] |
| O=C(CCC1CCCC1)c1c(O)c2ccccc2oc1=O | active: 20.6 µM |
| COC(=O)C1=C(c2ccc(-c3ccccc3)c(F)c2)C[C@@H]2CC[C@H]1N2C(=O)NC1Cc2ccccc2C1 | inconclusive: 16.4 µM [falling, single point] |
| Cn1c(=O)oc2cc(NC(=O)CCl)ccc21 | inconclusive: 20.6 µM [falling, single point] |
| FC(F)(F)c1ccc2c(c1)N(CCCN1CCN(CCCl)CC1)c1ccccc1S2 | inconclusive: 16.4 µM [falling, partial curve] |
| CC1CCCC(NC(=O)COC(=O)c2cn(C)c3ccccc23)C1C (stereo not drawn) | inactive |
| CC1C(=O)OC2CCN3CC4OC4(COC(=O)C(C)(O)C1(C)O)C23 (stereo not drawn) | inactive |
| COC(=O)C1=C(C(=O)OC)SC2(S1)C(C(=O)OC)=C(C(=O)OC)Sc1c2ssc1=O | inconclusive: 3.66 µM [activator, partial curve, poor fit] |

| SMILES | Potency |
| --- | --- |
| C=CCc1c(C)nc(C)nc1N/N=C/c1ccc(N(C)C)cc1 | inconclusive: 9.2 µM [falling, partial curve, poor fit] |
| CCOC(=O)C1(CCOc2ccccc2)CCN(Cc2cnc(SC)nc2)CC1 | inconclusive: 29.1 µM [falling, single point] |
| O=C1NC(=O)C(=Cc2cc3c(cc2[N+](=O)[O-])OCO3)C(=O)N1 | inactive |
| CC(C)c1ccc(N2C(=O)NC(=O)/C(=C/C=C/c3ccco3)C2=O)cc1 | inconclusive: 23.1 µM [falling, single point] |
| O=C(C1CC(c2ccccc2O)=NO1)N1CCC2(CC1)OCCO2 (stereo not drawn) | inconclusive: 1.64 µM [activator, partial curve, poor fit] |
| C[C@H](NC(=O)N1C[C@H]2C[C@@H](C1)c1cccc(=O)n1C2)C(=O)Nc1ccccc1F | inactive |
| CCCCCCNC(=O)N[C@@H](Cc1ccc(O)cc1)C(=O)NCCC[C@H]1CN2C(=NC[C@H]2C)N1CC1CCC1 | inconclusive: 14.6 µM [activator, partial curve] |
| CN(C(=O)c1cccc(NC(=O)Cc2cccc([N+](=O)[O-])c2)c1)C1CCCCC1 | inconclusive: 23.1 µM [falling, single point] |
| COc1ccc([N+](=O)[O-])cc1N=Cc1c(O)n(CCc2ccccc2)c(=O)n(C(C)C)c1=O | inconclusive: 32.6 µM [falling, partial curve, poor fit] |
| C=C1C(O)[C@@H]2O[C@]3(CC[C@H](/C=C/C(C)[C@@H]4CC(C)=CC5(O[C@H](C[C@@](C)(O)C(=O)O)CCC5O)O4)O3)CC[C@H]2O[C@@H]1C(O)CC(C)[C@H]1OC2(CCCCO2)CCC1C (stereo partly drawn) | inconclusive: 0.0116 µM [falling, full curve, poor fit] |
| COC1C(O)C(C)OC(OC2C(Oc3cccc4c(O)c5c(=O)oc6ccc(C)c7c(=O)oc(c34)c5c67)OC(C)C(O)C2O)C1O (stereo not drawn) | inconclusive: 18.4 µM [falling, partial curve] |
| COc1ccc(N2C(=O)/C(=C/c3ccc(OC)c(OC)c3)C(=O)NC2=S)cc1 | inactive |
| CC(C)(C)c1ccc(CSc2cnn(C(C)(C)C)c(=O)c2Cl)cc1 | active: 0.146 µM |
| O=C1N=c2ccccc2=C/C1=C\c1c(O)[nH]c(=S)[nH]c1=O | inactive |
| COc1ccc(NC2=NC(C)(C)CS2)cc1 | inconclusive: 2.91 µM [activator, full curve] |
| Nc1ccc(CCN2CCN(c3cccc(C(F)(F)F)c3)CC2)cc1 | inconclusive: 18.4 µM [falling, single point] |
| COc1ccc(C(C)=O)cc1CC(C(=O)c1ccccc1)N(C)C (stereo not drawn) | inconclusive: 16.4 µM [activator, single point] |
| O=C(CSc1ccccc1)N1CCC2(CC1)OCCO2 | inconclusive: 2.31 µM [activator, full curve] |
| CCSc1cc(C2C(C#N)=C(N)Oc3n[nH]c(C)c32)c(C)o1 (stereo not drawn) | inconclusive: 11.6 µM [falling, partial curve, poor fit] |
| CC(C)c1ccc(NC(=O)c2ccc3c(c2)CCN3S(=O)(=O)c2ccccc2)cc1 | inconclusive: 5.8 µM [falling, partial curve] |
| O=C1NC(=O)N(Cc2ccc(F)cc2)C(=O)/C1=C\C=C\c1ccco1 | inconclusive: 20.6 µM [falling, single point] |
